Data: paper PMC11840727
These are yes or no findings as the source states them, for the method shown. Binding seen in cells or lysates may run through a third protein. Some entries that bind do so weakly or less than the wild type. For some of these results: Where a sequence is shown, tags or fusion partners need not be part of it. Blank lines part the entries; values can stand above or below the binder they belong to.

Amino acid sequences for entries named in this document (tags omitted). A change or cut given only in a name is not applied to a line headed by its entry. Residues count along the entry.
UniProt P01106: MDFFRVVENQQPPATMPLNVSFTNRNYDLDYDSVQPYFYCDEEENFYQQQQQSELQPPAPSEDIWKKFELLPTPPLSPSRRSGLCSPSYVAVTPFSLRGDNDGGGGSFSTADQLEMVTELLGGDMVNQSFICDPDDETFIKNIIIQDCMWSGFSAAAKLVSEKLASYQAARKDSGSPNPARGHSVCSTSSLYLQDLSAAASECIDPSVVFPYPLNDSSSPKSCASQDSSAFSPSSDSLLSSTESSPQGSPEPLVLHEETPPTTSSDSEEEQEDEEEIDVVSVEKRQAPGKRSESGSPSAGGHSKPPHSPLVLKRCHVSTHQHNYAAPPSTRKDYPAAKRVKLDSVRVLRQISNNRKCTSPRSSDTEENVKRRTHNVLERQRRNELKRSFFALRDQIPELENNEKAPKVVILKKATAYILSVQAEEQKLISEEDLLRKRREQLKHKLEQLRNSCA
endogenous MYC (human (endogenous in UM-UC-3)): residues 16-454 of P01106
MYC N-terminal region (amino acids 1-221): residues 16-236 of P01106
MYC C-terminal region (amino acids 220-439): residues 235-454 of P01106

Columns and labels:
[1] = target: MYC (exogenous; Flag-MYC or HA-MYC) (UniProt P01106); assay: co-IP; 293T cells transfected with the plasmids; lysates incubated with primary antibody overnight at 4°C, then Protein A/G magnetic beads 3 h at 4°C, four washes, Western blot; USP11-MYC also tested with DLGAP5 knockdown or overexpression
GST-MYC protein = GST-MYC protein (UniProt P01106); assay: pull-down; lysate of transfected 293T cells incubated overnight with 2 µg GST or GST-MYC protein, then glutathione magnetic beads 2 h; Western blot; only the target purified
[2] = target: MYC C-terminal region (amino acids 220-439) (UniProt P01106); assay: co-IP; 293T cells transfected with the plasmids; lysates incubated with primary antibody overnight at 4°C, then Protein A/G magnetic beads 3 h at 4°C, four washes, Western blot; USP11-MYC also tested with DLGAP5 knockdown or overexpression
[3] = target: MYC N-terminal region (amino acids 1-221) (UniProt P01106); assay: as above
[4] = target: endogenous MYC (human (endogenous in UM-UC-3)) (UniProt P01106); assay: co-IP; endogenous proteins in BLCA cells (UM-UC-3; UM-UC-3-P and GEM-resistant UM-UC-3-R); Protein A/G magnetic beads, Western blot

- binding [1]: binds
B1: USP11 M3 region (amino acids 504-963) (domain or fragment, UniProt P51784 504-963)
chain: DPRRKPEQHRLVVPKKGKISDLCVALSKHTGISPERMMVADVFSHRFYKLYQLEEPLSSILDRDDIFVYEVSGRIEAIEGSREDIVVPVYLRERTPARDYNNSYYGLMLFGHPLLVSVPRDRFTWEGLYNVLMYRLSRYVTKPNSDDEDDGDEKEDDEEDKDDVPGPSTGGSLRDPEPEQAGPSSGVTNRCPFLLDNCLGTSQWPPRRRRKQLFTLQTVNSNGTSDRTTSPEEVHAQPYIAIDWEPEMKKRYYDEVEAEGYVKHDCVGYVMKKAPVRLQECIELFTTVETLEKENPWYCPSCKQHQLATKKLDLWMLPEILIIHLKRFSYTKFSREKLDTLVEFPIRDLDFSEFVIQPQNESNPELYKYDLIAVSNHYGGMRDGHYTTFACNKDSGQWHYFDDNSVSPVNENQIESKAAYVLFYQRQDVARRLLSPAGSSGAPASPACSSPPSSEFMDVN

- binding [1]: binds
B2: DLGAP5-NT (amino acids 1-300) (domain or fragment, UniProt Q15398 1-300)
chain: MSSSHFASRHRKDISTEMIRTKIAHRKSLSQKENRHKEYERNRHFGLKDVNIPTLEGRILVELDETSQGLVPEKTNVKPRAMKTILGDQRKQMLQKYKEEKQLQKLKEQREKAKRGIFKVGRYRPDMPCFLLSNQNAVKAEPKKAIPSSVRITRSKAKDQMEQTKIDNESDVRAIRPGPRQTSEKKVSDKEKKVVQPVMPTSLRMTRSATQAAKQVPRTVSSTTARKPVTRAANENEPEGKVPSKGRPAKNVETKPDKGISCKVDSEENTLNSQTNATSGMNPDGVLSKMENLPEINTAK

B3: GFP-DLGAP5 (protein, UniProt Q15398 1-846)
chain: MSSSHFASRHRKDISTEMIRTKIAHRKSLSQKENRHKEYERNRHFGLKDVNIPTLEGRILVELDETSQGLVPEKTNVKPRAMKTILGDQRKQMLQKYKEEKQLQKLKEQREKAKRGIFKVGRYRPDMPCFLLSNQNAVKAEPKKAIPSSVRITRSKAKDQMEQTKIDNESDVRAIRPGPRQTSEKKVSDKEKKVVQPVMPTSLRMTRSATQAAKQVPRTVSSTTARKPVTRAANENEPEGKVPSKGRPAKNVETKPDKGISCKVDSEENTLNSQTNATSGMNPDGVLSKMENLPEINTAKIKGKNSFAPKDFMFQPLDGLKTYQVTPMTPRSANAFLTPSYTWTPLKTEVDESQATKEILAQKCKTYSTKTIQQDSNKLPCPLGPLTVWHEEHVLNKNEATTKNLNGLPIKEVPSLERNEGRIAQPHHGVPYFRNILQSETEKLTSHCFEWDRKLELDIPDDAKDLIRTAVGQTRLLMKERFKQFEGLVDDCEYKRGIKETTCTDLDGFWDMVSFQIEDVIHKFNNLIKLEESGWQVNNNMNHNMNKNVFRKKVVSGIASKPKQDDAGRIAARNRLAAIKNAMRERIRQEECAETAVSVIPKEVDKIVFDAGFFRVESPVKLFSGLSVSSEGPSQRLGTPKSVNKAVSQSRNEMGIPQQTTSPENAGPQNTKSEHVKKTLFLSIPESRSSIEDAQCPGLPDLIEENHVVNKTDLKVDCLSSERMSLPLLAGGVADDINTNKKEGISDVVEGMELNSSITSQDVLMSSPEKNTASQNSILEEGETKISQSELFDNKSLTTECHLLDSPGLNCSNPFTQLERRHQEHARHISFGGNLITFSPLQPGEF
- binding (GST-MYC protein): binds
- binding [1]: binds
- binding [2]: binds
- binding [3]: binds

- binding [4]: binds
B4: endogenous DLGAP5 (protein, UniProt Q15398 1-846)
chain: B3 chain
